Test results published in patent publication US10172839B2, “Use of short term starvation regimen in combination with kinase inhibitors to enhance traditional chemo-drug efficacy and feasibility and reverse side effects of kinases in normal cells and tissues” (UNIVERSITY OF SOUTHERN CALIFORNIA, priority 2014, dated 2019).
At least one compound was matched to its structure with a doubt left.

Columns and labels:
[1] = system: human neuroblastoma (SH-SY5Y); assay: Cell viability by Trypan blue staining, human neuroblastoma; type: cell-based; conditions: rapamycin + TVD (topotecan+vincristine+doxorubicin), STS vs ad lib conditions (FIG. 3A)
murine melanoma (B16) = assay: Cell viability by Trypan blue staining, murine melanoma; type: cell-based; conditions: rapamycin + doxorubicin (DXR), STS vs ad lib conditions (FIG. 3C)
4T1 murine breast cancer = assay: Tumor progression, 4T1 murine breast cancer allograft model; type: in vivo, Balb/c mice; conditions: daily rapamycin + multiple cycles of STS, with or without DXR (FIG. 4B, 4C)
B16 murine melanoma = assay: Tumor progression, B16 murine melanoma allograft model; type: in vivo, C57BL/6 mice; conditions: daily rapamycin + multiple cycles of STS, with or without DXR (FIG. 4D, 4E)

CO[C@H]1C[C@@H]2CC[C@@H](C)[C@@](O)(O2)C(=O)C(=O)N2CCCC[C@H]2C(=O)O[C@H]([C@H](C)C[C@@H]2CC[C@@H](O)[C@H](OC)C2)CC(=O)[C@H](C)/C=C(\C)[C@@H](O)[C@@H](OC)C(=O)[C@H](C)C[C@H](C)/C=C/C=C/C=C/1C [rapamycin]
cell viability [1]: augments the efficacy of rapamycin and chemotherapy in reducing cell viability
cell viability (murine melanoma (B16)): augments the efficacy of rapamycin and chemotherapy in reducing cell viability
tumor progression (tumor volume) (4T1 murine breast cancer): additive effect in reducing tumor progression
tumor progression (tumor volume) (B16 murine melanoma): additive effect in reducing tumor progression
